Structures can show the parent of a compound that is named as a salt. ± gives the standard deviation of the averaged measurements. This is one part of the list. These are raw signals, not scaled to a control.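 Across three biological replicates, HeLa cells were imaged for ribosome assembly using ENP1 staining (export block present or absent) or inducible tagged ribosomal protein reporters. Machine learning classified each cell's signal localization relative to DMSO controls. Hits exceeded the DMSO false-positive mean by five standard deviations and were then visually confirmed.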

The source of these data is the supplement of paper PMC12542422.

For test [1], the system named is HeLa K (ENP1 immunofluorescence, +LMB). As to the kind of experiment: fraction of cells with nucleolar or nucleolar/nucleoplasmic ENP1 signal (MainHitrate); higher = more cells with nucleolar/nuclear readout signal (for ENP1 -LMB: less RNAPI inhibition; for +LMB ENP1 and RP reporters: stronger nuclear/nucleolar retention, i.e. ribosome biogenesis defect). The settings on record: concentration: 1 µM; treatment time: 6 h; ENP1 +LMB; leptomycin B: 20 nM, last 1.5 h.

The subject of test [2] is HeLa K (ENP1 immunofluorescence, no LMB). The test is described as above. The following applies: concentration: 1 µM; treatment time: 6 h; ENP1 -LMB; leptomycin B: none.
Test [3] concerns HeLa RPS2-YFP reporter. As to the kind of experiment: fraction of reporter-positive cells with nuclear (nucleolar or nucleolar/nucleoplasmic) RPS2-YFP (MainHitrate); higher = more cells with nucleolar/nuclear readout signal (for ENP1 -LMB: less RNAPI inhibition; for +LMB ENP1 and RP reporters: stronger nuclear/nucleolar retention, i.e. ribosome biogenesis defect). The settings on record: concentration: 1 µM; treatment time: 6 h.

The test system of test [4] is HeLa RPL29-GFP reporter. As to the kind of experiment: fraction of reporter-positive cells with nuclear (nucleolar or nucleolar/nucleoplasmic) RPL29-GFP (MainHitrate); higher = more cells with nucleolar/nuclear readout signal (for ENP1 -LMB: less RNAPI inhibition; for +LMB ENP1 and RP reporters: stronger nuclear/nucleolar retention, i.e. ribosome biogenesis defect). The settings on record: concentration: 1 µM; treatment time: 6 h.

For the molecule `O=C(N[C@H](CO)[C@H](O)c1ccc([N+](=O)[O-])cc1)C(Cl)Cl` [Chloramphenicol (Chloromycetin)], the results for the fraction in test [1] and in test [2] were 0.114 ± 0.066 and 0.9973 ± 0.0046, respectively. For the same molecule, the “fraction of reporter-positive cells with nuclear” value (from here on “fraction … with nuclear”) came out at 0.107 ± 0.098 in test [3] and 0.184 ± 0.029 in test [4].

Take `NCCS(=O)(=O)O` [Taurine]: the fraction in test [1] came to 0.142 ± 0.22; in test [2] it was 0.991 ± 0.015. Moreover, the “fraction … with nuclear” value is 0.111 ± 0.073 in test [3] and 0.214 ± 0.081 in test [4].

On to `COc1cc2/c(=N/c3ccc(Br)cc3F)nc[nH]c2cc1OCC1CCN(C)CC1` [Vandetanib (Zactima)], for which the fraction in test [1] turned out to be 0.087 ± 0.05; in test [2], 0.9987 ± 0.0023. Further, the figures for the “fraction … with nuclear” value in test [3] and in test [4] were 0.106 ± 0.066 and 0.197 ± 0.047, respectively.

Regarding `COc1ccc2[nH]cc(CCNC(C)=O)c2c1` [Melatonin], the fraction in test [1] amounted to 0.099 ± 0.1; in test [2], 0.9985 ± 0.0026. The “fraction … with nuclear” value in test [3] was 0.101 ± 0.062; in test [4], 0.2 ± 0.06.

For the molecule `C[C@@H]1C[C@H]2[C@@H]3C[C@H](F)C4=CC(=O)C=C[C@]4(C)[C@@]3(F)[C@@H](O)C[C@]2(C)[C@@]1(O)C(=O)CO` [Flumethasone], the results for the fraction in test [1] and in test [2] were 0.09 ± 0.12 and 0.987 ± 0.023, respectively. The “fraction … with nuclear” value came out at 0.155 ± 0.14 in test [3] and 0.255 ± 0.11 in test [4].

For the molecule `O=S(=O)(O)Oc1ccc(C(c2ccc(OS(=O)(=O)O)cc2)c2ccccn2)cc1` [Sodium Picosulfate], the fraction in test [1] turned out to be 0.0454 ± 0.05; in test [2], 0.987 ± 0.023. For the same molecule, the entries for the “fraction … with nuclear” value in test [3] and in test [4] were 0.1 ± 0.077 and 0.226 ± 0.069, respectively.

In the case of `N#C[C@@H]1C[C@@H]2C[C@@H]2N1C(=O)[C@@H](N)C12CC3CC(CC(O)(C3)C1)C2`, the fraction is 0.0461 ± 0.012 in test [1] and 0.9981 ± 0.0033 in test [2]. Further, the results for the “fraction … with nuclear” value in test [3] and in test [4] were 0.128 ± 0.086 and 0.23 ± 0.06, respectively.

In the case of `CCc1c2c(nc3ccc(OC(=O)N4CCC(N5CCCCC5)CC4)cc13)-c1cc3c(c(=O)n1C2)COC(=O)[C@]3(O)CC` [Irinotecan HCl Trihydrate (Campto)], the results for the fraction in test [1] and in test [2] were 0.206 ± 0.33 and 0.985 ± 0.026, respectively. Moreover, the figures for the “fraction … with nuclear” value in test [3] and in test [4] were 0.11 ± 0.068 and 0.228 ± 0.068, respectively.

As for `N=C(N)c1ccc(N=NNc2ccc(C(=N)N)cc2)cc1` [Diminazene Aceturate], the values for the fraction in test [1] and in test [2] were 0.0609 ± 0.083 and 0.993 ± 0.012, respectively. In addition, the “fraction … with nuclear” value in test [3] turned out to be 0.12 ± 0.11; in test [4], 0.203 ± 0.057.
